In paper PMC7181604, “Arabidopsis FHY3 and FAR1 integrate light and strigolactone signaling to regulate branching”:
Results are given in words; binding and its absence hold for the method and conditions named. Some results given as binding are weak or reduced against the parent protein; the word gives no strength. Sequences can lack the tags named with a protein.

Key:
Assay in all cases: two-hybrid; LexA/AD system in yeast strain EGY48 plus H18; SD/-Ura/-Trp/-His, then raffinose, galactose and X-gal for blue color development
[1] = target: T1, SMXL8 (yeast two-hybrid fusion) (Arabidopsis thaliana) (UniProt F4IGZ2)
T1 sequence: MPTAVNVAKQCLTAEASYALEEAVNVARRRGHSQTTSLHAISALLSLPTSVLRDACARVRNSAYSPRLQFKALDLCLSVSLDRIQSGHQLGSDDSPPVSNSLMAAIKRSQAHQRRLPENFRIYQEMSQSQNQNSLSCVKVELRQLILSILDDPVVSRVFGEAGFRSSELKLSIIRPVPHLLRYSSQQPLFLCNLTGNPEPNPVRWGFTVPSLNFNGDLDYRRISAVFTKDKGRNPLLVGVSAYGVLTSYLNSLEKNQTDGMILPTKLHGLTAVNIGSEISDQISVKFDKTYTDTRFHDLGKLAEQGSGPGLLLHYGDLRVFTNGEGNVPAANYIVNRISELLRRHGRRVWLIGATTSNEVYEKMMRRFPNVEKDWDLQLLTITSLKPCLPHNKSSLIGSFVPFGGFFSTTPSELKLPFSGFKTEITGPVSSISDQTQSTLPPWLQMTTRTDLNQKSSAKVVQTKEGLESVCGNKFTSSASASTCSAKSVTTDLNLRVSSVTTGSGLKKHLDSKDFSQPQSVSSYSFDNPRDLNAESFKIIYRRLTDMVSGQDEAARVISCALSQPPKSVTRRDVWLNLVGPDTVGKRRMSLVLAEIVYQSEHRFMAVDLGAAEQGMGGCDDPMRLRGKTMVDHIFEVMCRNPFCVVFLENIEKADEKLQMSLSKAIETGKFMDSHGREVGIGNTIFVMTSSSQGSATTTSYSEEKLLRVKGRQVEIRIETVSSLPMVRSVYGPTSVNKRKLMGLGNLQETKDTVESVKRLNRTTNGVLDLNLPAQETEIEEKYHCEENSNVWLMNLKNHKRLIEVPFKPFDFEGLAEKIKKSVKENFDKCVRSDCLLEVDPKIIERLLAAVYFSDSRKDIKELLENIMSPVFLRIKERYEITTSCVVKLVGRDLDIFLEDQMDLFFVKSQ

[2] = target: T2, SPL9 (yeast two-hybrid fusion) (Arabidopsis thaliana) (UniProt Q700W2)
T2 sequence: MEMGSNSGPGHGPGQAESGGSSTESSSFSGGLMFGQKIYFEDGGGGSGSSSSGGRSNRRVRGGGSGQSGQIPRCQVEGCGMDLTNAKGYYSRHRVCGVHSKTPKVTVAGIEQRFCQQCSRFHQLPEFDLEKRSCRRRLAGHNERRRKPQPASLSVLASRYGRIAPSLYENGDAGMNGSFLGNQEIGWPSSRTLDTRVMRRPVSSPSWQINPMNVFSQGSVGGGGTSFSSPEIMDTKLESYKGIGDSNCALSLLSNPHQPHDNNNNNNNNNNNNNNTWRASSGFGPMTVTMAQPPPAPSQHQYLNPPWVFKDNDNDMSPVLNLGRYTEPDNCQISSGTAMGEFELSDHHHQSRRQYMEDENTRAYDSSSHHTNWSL

[3] = target: T3, BRC1 (yeast two-hybrid fusion) (Arabidopsis thaliana) (UniProt A1YKT1)
T3 sequence: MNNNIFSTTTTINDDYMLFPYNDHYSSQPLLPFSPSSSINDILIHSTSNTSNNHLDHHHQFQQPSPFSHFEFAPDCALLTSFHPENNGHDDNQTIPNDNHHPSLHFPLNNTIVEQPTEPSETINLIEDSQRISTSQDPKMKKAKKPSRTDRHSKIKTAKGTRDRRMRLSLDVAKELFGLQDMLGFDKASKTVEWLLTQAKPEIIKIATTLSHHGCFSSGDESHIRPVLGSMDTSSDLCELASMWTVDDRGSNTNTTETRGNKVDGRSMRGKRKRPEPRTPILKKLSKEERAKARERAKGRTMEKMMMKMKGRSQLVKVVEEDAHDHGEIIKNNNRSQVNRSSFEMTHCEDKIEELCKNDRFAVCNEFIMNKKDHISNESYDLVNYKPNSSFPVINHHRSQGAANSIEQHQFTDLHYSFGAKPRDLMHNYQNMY

Binder	binding [1]	binding [2]	binding [3]
FHY3 (yeast two-hybrid fusion) (protein, UniProt Q9LIE5 1-839) MDIDLRLHSGDLCKGDDEDRGLDNVLHNEEDMDIGKIEDVSVEVNTDDSVGMGVPTGELVEYTEGMNLEPLNGMEFESHGEAYSFYQEYSRAMGFNTAIQNSRRSKTTREFIDAKFACSRYGTKREYDKSFNRPRARQSKQDPENMAGRRTCAKTDCKASMHVKRRPDGKWVIHSFVREHNHELLPAQAVSEQTRKIYAAMAKQFAEYKTVISLKSDSKSSFEKGRTLSVETGDFKILLDFLSRMQSLNSNFFYAVDLGDDQRVKNVFWVDAKSRHNYGSFCDVVSLDTTYVRNKYKMPLAIFVGVNQHYQYMVLGCALISDESAATYSWLMETWLRAIGGQAPKVLITELDVVMNSIVPEIFPNTRHCLFLWHVLMKVSENLGQVVKQHDNFMPKFEKCIYKSGKDEDFARKWYKNLARFGLKDDQWMISLYEDRKKWAPTYMTDVLLAGMSTSQRADSINAFFDKYMHKKTSVQEFVKVYDTVLQDRCEEEAKADSEMWNKQPAMKSPSPFEKSVSEVYTPAVFKKFQIEVLGAIACSPREENRDATCSTFRVQDFENNQDFMVTWNQTKAEVSCICRLFEYKGYLCRHTLNVLQCCHLSSIPSQYILKRWTKDAKSRHFSGEPQQLQTRLLRYNDLCERALKLNEEASLSQESYNIAFLAIEGAIGNCAGINTSGRSLPDVVTSPTQGLISVEEDNHSRSAGKTSKKKNPTKKRKVNPEQDVMPVAAPESLQQMDKLSPRTVGIESYYGTQQSVQGMVQLNLMGPTRDNFYGNQQTMQGLRQLNSIAPSYDSYYGPQQGIHGQGVDFFRPANFSYDIRDDPNVRTTQLHEDASRHS	no binding	binds	no binding
FAR1 (yeast two-hybrid fusion) (protein, UniProt Q9SWG3 1-827) MDLQENLVSDAGDDHMVDIVVEPHSNRDIGIVDEFNIGGDVGFSGDLDLEPRNGIDFDTHEAAYIFYQEYAKSMGFTTSIKNSRRSKKTKDFIDAKFACSRYGVTPESESSGSSSRRSTVKKTDCKASMHVKRRPDGKWIIHEFVKDHNHELLPALAYHFRIQRNVKLAEKNNIDILHAVSERTKKMYVEMSRQSGGYKNIGSLLQTDVSSQVDKGRYLALEEGDSQVLLEYFKRIKKENPKFFYAIDLNEDQRLRNLFWADAKSRDDYLSFNDVVSFDTTYVKFNDKLPLALFIGVNHHSQPMLLGCALVADESMETFVWLIKTWLRAMGGRAPKVILTDQDKFLMSAVSELLPNTRHCFALWHVLEKIPEYFSHVMKRHENFLLKFNKCIFRSWTDDEFDMRWWKMVSQFGLENDEWLLWLHEHRQKWVPTFMSDVFLAGMSTSQRSESVNSFFDKYIHKKITLKEFLRQYGVILQNRYEEESVADFDTCHKQPALKSPSPWEKQMATTYTHTIFKKFQVEVLGVVACHPRKEKEDENMATFRVQDCEKDDDFLVTWSKTKSELCCFCRMFEYKGFLCRHALMILQMCGFASIPPQYILKRWTKDAKSGVLAGEGADQIQTRVQRYNDLCSRATELSEEGCVSEENYNIALRTLVETLKNCVDMNNARNNITESNSQLNNGTHEEENQVMAGVKATKKKTVYRKRKGQQEASQMLESQQSLQPMETISSEAMDMNGYYGPQQNVQGLLNLMEPPHEGYYVDQRTIQGLGQLNSIAPAQDSFFTNQQAMSGMVGQIDFRPPPNFTYTLQEEHLSSAQLPGSSSRQL	no binding	binds	no binding
